Assay results from PubChem BioAssay AID1671190 (National Center for Advancing Translational Sciences (NCATS), 2021).
About 6,100 (1.1%) of roughly 580,000 compounds were called active. This list was built around the results that the source calls inconclusive (neither active nor inactive); the mix of calls is not that of the screen. The call rests on the fitted dose curve; in most records, active means well fitted inhibition curve with a large enough effect; inconclusive means small, poorly fitted or top-dose-only effect, or another doubt; inactive means no such curve, though single readings can be large or run the other way. A potency beside an inconclusive call is a rough fit, not a confirmed value.

Sequences of proteins named here, by UniProt entry; tags and fusion partners are left off. A change or cut given only in a name is not applied to a line headed by its entry.
UniProt P18054: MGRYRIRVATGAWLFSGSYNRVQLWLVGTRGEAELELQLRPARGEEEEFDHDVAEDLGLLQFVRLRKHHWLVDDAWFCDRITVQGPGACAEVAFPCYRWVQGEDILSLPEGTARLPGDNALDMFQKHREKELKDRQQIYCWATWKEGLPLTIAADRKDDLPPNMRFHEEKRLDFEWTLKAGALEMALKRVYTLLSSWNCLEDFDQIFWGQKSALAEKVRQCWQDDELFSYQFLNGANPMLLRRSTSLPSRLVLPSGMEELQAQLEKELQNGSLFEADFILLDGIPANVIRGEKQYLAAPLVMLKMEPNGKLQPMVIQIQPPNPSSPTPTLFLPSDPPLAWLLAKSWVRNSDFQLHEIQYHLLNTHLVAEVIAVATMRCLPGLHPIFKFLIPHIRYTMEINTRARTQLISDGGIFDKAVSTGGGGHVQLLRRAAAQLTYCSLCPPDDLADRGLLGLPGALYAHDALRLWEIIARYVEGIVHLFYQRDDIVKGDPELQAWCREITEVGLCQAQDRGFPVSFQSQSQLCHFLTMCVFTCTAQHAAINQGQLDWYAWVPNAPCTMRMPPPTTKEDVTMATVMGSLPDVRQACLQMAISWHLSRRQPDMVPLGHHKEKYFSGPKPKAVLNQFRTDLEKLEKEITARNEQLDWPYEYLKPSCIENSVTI

The compounds below were run against Polyunsaturated fatty acid lipoxygenase ALOX12 (Homo sapiens) (UniProt P18054) (assay: Primary qHTS assay for inhibitors of human arachidonate 12S-lipoxygenase (ALOX12): Round 2). Details: purified 12hLO, xylenol orange hydroperoxide absorbance; activity change, negative = inhibition: at 108 µM (top of the series) unless noted.
Method in brief: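 Purified human 12hLO at 150 nM in 25 mM Hepes, 0.01% Triton X-100, pH 7.0, preincubated 15 min at room temperature with compound. Reaction started with 40 uM arachidonic acid, 30 min at room temperature. Hydroperoxide measured by Fe-xylenol orange, 573/405 nm absorbance ratio.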
On the % scale 0 is the no-effect control and ±100 the full control effect; potency means the concentration at half of the fitted maximal effect.

Row | SMILES | Potency | activity change, negative = inhibition
1 | O=C1/C(=C\c2ccco2)SC(=S)N1Cc1ccccc1 | inconclusive: 3.16 µM [inhibitor, full curve, poor fit] | 
2 | O=C1CC(C(=O)Nc2ccc(Cl)cc2Cl)n2nc(-c3ccccc3)cc2N1 (stereo not drawn) | inconclusive: 3.55 µM [inhibitor, full curve, poor fit] | 
3 | CCCc1ccc(OCc2ccc(C(=O)N3CCSCC3)o2)cc1 | inconclusive: 31.6 µM [inhibitor, full curve, poor fit] | 
4 | CC(C)C(NC(=O)c1ccc(CO)cc1)C(=O)O (stereo not drawn) |  | inactive: 6.12%
5 | NC(=O)CC(NC(=O)Cc1ccc(Br)cc1)c1ccc(NC2CCCCCC2)c([N+](=O)[O-])c1 (stereo not drawn) |  | inactive: 3.09%
6 | O=S(=O)(c1cccc(-c2n[nH]c(=S)n2C2CCCC2)c1)N1CCOCC1 | inconclusive: 50.1 µM [inhibitor, partial curve, poor fit] | 
7 | O=C(CSC(=O)c1ccccc1)Nc1ccccc1F | inconclusive: 44.7 µM [inhibitor, partial curve, poor fit] | 
8 | CCc1ccc(OCC(=O)Nc2ccc(S(=O)(=O)NC(C)(C)C)cc2)cc1 | inconclusive: 39.8 µM [inhibitor, full curve, poor fit] | 
9 | CCCCNC(=S)NNC(=O)c1cc(-c2ccncc2)nc2ccccc12 | inconclusive: 44.7 µM [inhibitor, partial curve, poor fit] | 
10 | Cn1cc(Cc2ccc(C(=O)N3CCN(Cc4ccccc4)CC3)cn2)c2ccccc21 | inconclusive: 89.1 µM [inhibitor, single point] | 
11 | O=P(O)(O)c1ccccc1OCc1ccccc1 | inconclusive: 79.4 µM [inhibitor, partial curve, poor fit] | 
12 | O=C(N/N=C/c1ccc([N+](=O)[O-])o1)C1CCCCC1 | inconclusive: 50.1 µM [inhibitor, partial curve, poor fit] | 
13 | COc1ccc(-c2oc3cc(OC)c(O)c(OC)c3c(=O)c2OC)cc1O | inconclusive: 70.8 µM [inhibitor, single point] | 
14 | Cc1ccc(NN2C(=O)C=C(c3ccccc3)C2=O)cc1 | inconclusive: 50.1 µM [inhibitor, partial curve, poor fit] | 
15 | CCc1ccccc1NC(=S)N1CCN(c2ccccn2)CC1 | inconclusive: 44.7 µM [inhibitor, partial curve, poor fit] | 
16 | COc1ccc(Cl)cc1-n1cnc2cc(C(=O)N3CCSCC3)ccc2c1=O |  | inactive: -2.16%
17 | COc1cnc(CSc2ncccn2)cc1OCC(=O)N1CCc2ccccc21 |  | inactive: -41.7%
18 | CC1Cc2nc(SCC(=O)NCc3ccccc3)n(Cc3ccccc3)c(=O)c2S1 (stereo not drawn) |  | inactive: 14.4% [at 57.4 µM]
19 | CC(=O)N1[C@H](Cc2ccccc2)C=C[C@]1(C)C(=O)NCc1ccccn1 | inconclusive: 1.26 µM [inhibitor, partial curve, poor fit] | 
20 | CCc1ccc(C(=O)C(C)OC(=O)c2ccc(CO)cc2)cc1 (stereo not drawn) | inconclusive: 39.8 µM [inhibitor, partial curve, poor fit] | 
21 | CC1=C(C(=O)N(C)C)CC(CC(=O)NCCc2ccccn2)C(=O)N1Cc1ccc(F)cc1 (stereo not drawn) | inconclusive: 39.8 µM [inhibitor, partial curve, poor fit] | 

Row | SMILES | Potency | activity change, negative = inhibition
22 | Cc1ccc(Sc2cc(C)nc(N)n2)cc1 | inconclusive: 31.6 µM [inhibitor, partial curve, poor fit] | 
23 | Cc1ccccc1NC(=O)CSc1ccc2c(c1)OCCCO2 | inconclusive: 44.7 µM [inhibitor, partial curve, poor fit] | 
24 | Oc1ccc(-n2nnnc2SCc2ncc(-c3ccc(Cl)cc3)o2)cc1 | active: 31.6 µM | 
25 | Cc1ccc(NC(=O)CN2CCN(c3ccc(C(F)(F)F)cn3)CC2)c(F)c1 | inconclusive: 22.4 µM [inhibitor, partial curve, poor fit] | 
26 | COc1ccc2c(C)c(CCC(=O)N3CCCCC3)c(=O)oc2c1 |  | inactive: 7.97%
27 | N[C@H](C(=O)O)[C@H]1C[C@@H]1C(=O)O | inconclusive: 35.5 µM [inhibitor, partial curve, poor fit] | 
28 | COC(=O)c1ccc(OCc2nn[nH]n2)cc1 | inconclusive: 178 µM [inhibitor, partial curve, poor fit] | 
29 | CCN(CC(=O)Nc1ccc(C(C)=O)cc1)CC(=O)Nc1ccc2c(c1)OCCO2 | inconclusive: 11.2 µM [inhibitor, partial curve, poor fit] | 
30 | O=C(c1ccccc1)N1CCC2(CC1)C(=O)NCN2Cc1ccc(Cl)cc1 | inconclusive: 28.2 µM [inhibitor, full curve] | 
31 | Cn1c(=O)c2c(ncn2CC(O)CNc2ccc(F)cc2)n(C)c1=O (stereo not drawn) | inconclusive: 100 µM [inhibitor, single point] | 
32 | O=C(Nc1ccc(S(=O)(=O)N2CCCCC2)cc1)c1ccc(CN2CCc3ccccc3C2)cc1 |  | inactive: 18.8%
33 | Nc1ncn(C(=S)Nc2ccccc2)n1 | inconclusive: 50.1 µM [inhibitor, partial curve] | 
34 | CCN(c1ccc(-c2csc(NC)n2)cc1)S(C)(=O)=O | inconclusive: 44.7 µM [inhibitor, partial curve, poor fit] | 
35 | C/C(=C\c1ccccc1)CN1CCN(c2cccc(Cl)c2)CC1 | inconclusive: 6.31 µM [inhibitor, full curve, poor fit] | 
36 | COC(=O)c1ccc(OC(=O)c2cccs2)c(OC)c1 | inconclusive: 6.31 µM [inhibitor, full curve, poor fit] | 
37 | CCOC(=O)C1CCN(C(=O)C2COC3(CCCC(C)C3)N2C(=O)c2ccccc2F)CC1 (stereo not drawn) | inconclusive: 25.1 µM [inhibitor, single point] | 
38 | Cc1ccc(NC(=O)CN2CCC(Cc3ccccc3)CC2)cc1S(=O)(=O)N(C)C | inconclusive: 0.562 µM [inhibitor, full curve, poor fit] | 
39 | C#CCOCCOCCOCCNc1nc(N2CCN(C(=O)[C@H](CCCCN)n3cc(CCC(=O)O)nn3)CC2)nc(N2CCN(C(=O)[C@H](Cc3ccc(O)cc3)n3cc(CCO)nn3)CC2)n1 | inconclusive: 31.6 µM [inhibitor, partial curve] | 
40 | Cc1cc2oc(C(=O)N(Cc3ccco3)Cc3ccco3)cc(=O)c2cc1Cl | inconclusive: 50.1 µM [inhibitor, partial curve, poor fit] | 
41 | CCc1nc2ccccc2n1CC(=O)N1CCN(Cc2ccccc2)CC1 |  | inactive: -3.31%
42 | Cn1c(NC(=O)c2ccccc2)c(-c2ccccn2)c(=O)c2ccccc21 | inconclusive: 7.08 µM [inhibitor, full curve] | 

Row | SMILES | Potency | activity change, negative = inhibition
43 | O=C(CC(CC(=O)c1ccc(Cl)cc1)c1ccccc1C(=O)O)c1ccc(Cl)cc1 | inconclusive: 50.1 µM [inhibitor, partial curve, poor fit] | 
44 | CCCCn1nc2cc(C(=O)NCc3cc(C(F)(F)F)cc(C(F)(F)F)c3)ccc2c1OCC |  | inactive: 8.01%
45 | O=C(C1CC1)N1CCCN(CCc2ccccc2)c2ccccc21 | inconclusive: 79.4 µM [inhibitor, single point] | 
46 | CC(C)CNC(=O)C1Nc2ccc(OC(F)(F)F)cc2C2C=CCC12 (stereo not drawn) | inconclusive: 50.1 µM [inhibitor, partial curve, poor fit] | 
47 | O=C(Nc1ccc(Cl)cc1)C1CC2CCCC(C1)C2=O (stereo not drawn) | inconclusive: 50.1 µM [inhibitor, partial curve, poor fit] | 
48 | Cc1ccc(NC(=O)c2cccc3c(=O)c4c([nH]c23)CCCC4)c(C)c1 | inconclusive: 56.2 µM [inhibitor, partial curve, poor fit] | 
49 | Cc1sc(N)c(C#N)c1-c1ccccc1 | inconclusive: 14.1 µM [inhibitor, full curve, poor fit] | 
50 | O=C(CS(=O)c1cccc(C(F)(F)F)c1)Nc1ccc(Cl)cc1Cl (stereo not drawn) |  | inactive: -1.7%
51 | COc1ccc(Cc2c(C3CCCCC3)nc3ccc(Br)cn23)c(C)c1 | inconclusive: 25.1 µM [inhibitor, partial curve] | 
52 | CC(C)[C@H](NC(=O)OC(C)(C)C)C(=O)NCC1CCC(C(=O)N[C@@H](Cc2ccccc2)C(=O)O)CC1 (stereo partly drawn) | inconclusive: 5.62 µM [inhibitor, partial curve, poor fit] | 
53 | COc1ccc(NC(=O)C2Cc3c(-c4ccc(Cl)cc4)ccnc3O2)cc1 (stereo not drawn) | inconclusive: 50.1 µM [inhibitor, partial curve, poor fit] | 
54 | CCN(CC)c1ccc(C(=O)N2CCc3c([nH]c4ccccc34)C2c2ccc(F)cc2)cc1 (stereo not drawn) | inconclusive: 44.7 µM [inhibitor, partial curve, poor fit] | 
55 | Cc1ccc(N2C=Nc3ccc(C)c4nc(C)cc2c34)cc1 |  | inactive: 9.59%
56 | COc1ccc(-c2[nH]ncc2/C=N\NC(=O)c2ccc(Br)o2)cc1OC |  | inactive: 0.544%
57 | O=C(N[C@@H]1CN(Cc2ccc(Cl)c(F)c2)C[C@H]1CO)C1CCC1 | inconclusive: 50.1 µM [inhibitor, partial curve, poor fit] | 
58 | COC[C@H]1CCCN1Cc1nc(C2(O)CCN(C3CCC3)CC2)cs1 | inconclusive: 50.1 µM [inhibitor, full curve, poor fit] | 
59 | COc1ccc(Cl)c(NC(=O)c2sc3nc(-c4ccncc4)ccc3c2N)c1 |  | inactive: 4.43%
60 | CC1(CBr)C2CCC1(CBr)c1nc3cc(Cl)c(Cl)cc3nc12 (stereo not drawn) |  | inactive: 5.79%
61 | NC(=O)c1ccc(NC(=O)c2cn(Cc3ccccc3)nc2-c2ccc(Cl)cc2)cc1 | inconclusive: 100 µM [inhibitor, single point] | 
62 | Cc1cc(C(=O)NC(=S)Nc2ccccc2N2CCCC2)ccc1[N+](=O)[O-] |  | inactive: -1.61%
63 | Cc1c(=O)n(OCc2ccccc2F)c2ccccc2[n+]1[O-] | inconclusive: 56.2 µM [inhibitor, partial curve, poor fit] | 

Entries above with a tert-butyl group:
Row | SMILES | Potency | activity change, negative = inhibition
8 | CCc1ccc(OCC(=O)Nc2ccc(S(=O)(=O)NC(C)(C)C)cc2)cc1 | inconclusive: 39.8 µM [inhibitor, full curve, poor fit] | 
52 | CC(C)[C@H](NC(=O)OC(C)(C)C)C(=O)NCC1CCC(C(=O)N[C@@H](Cc2ccccc2)C(=O)O)CC1 (stereo partly drawn) | inconclusive: 5.62 µM [inhibitor, partial curve, poor fit] | 
